Measured values as given in PubChem BioAssay AID2058 (Sanford-Burnham Center for Chemical Genomics, 2009).
In all, about 290,000 compounds went through this assay and about 150 (0.052%) were called active. Inconclusive means that the source gave no clear call. Such entries were picked first, then a sample of the others.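 The calls were made as follows: active = inhibition of at least 50% with at least 30 cells and total cytoplasm GFP at most 10,000,000; inconclusive = under 30 cells or total GFP of 10,000,000 plus; inactive = the rest.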

Amino acid sequences for entries named in this document (tags omitted). A change or cut given only in a name is not applied to a line headed by its entry.
UniProt Q9HC97: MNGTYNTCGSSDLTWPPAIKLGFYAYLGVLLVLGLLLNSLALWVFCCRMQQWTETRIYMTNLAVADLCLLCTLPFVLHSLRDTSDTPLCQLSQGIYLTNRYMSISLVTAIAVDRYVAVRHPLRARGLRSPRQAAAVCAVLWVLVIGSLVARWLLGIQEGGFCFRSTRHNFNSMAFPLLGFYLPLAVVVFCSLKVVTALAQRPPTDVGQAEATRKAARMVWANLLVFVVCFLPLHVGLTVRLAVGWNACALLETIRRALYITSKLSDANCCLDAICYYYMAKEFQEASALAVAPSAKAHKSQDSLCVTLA

Target: G-protein coupled receptor 35 (Homo sapiens) (UniProt Q9HC97)
Assay: inhibition of zaprinast-stimulated GPR35 beta-arrestin translocation – imaging, U2OS, beta-arrestin-GFP, zaprinast agonist, primary screen (AID 2058)
Details: zaprinast antagonism, at 10 µM, hits give high values

| SMILES | inhibition |
| --- | --- |
| O=C(/C=C/c1c[nH]c2ccccc12)c1c(O)n(CCc2ccccc2)c(=O)[nH]c1=O | inconclusive: 104% |
| CN1/C(=C\C=C\C2=[N+](C)c3ccc4ccccc4c3C2(C)C)C(C)(C)c2ccccc21 | active: 111% |
| Cc1c2ccncc2c(C)c2c1[nH]c1ccccc12 | active: 57.9% |
| CCN1/C(=C\C=C\C2=[N+](CC)c3ccccc3C2(C)C)C(C)(C)c2ccccc21 | inconclusive: 110% |
| O=C(Nc1ccc(F)cc1)c1c(O)c2c(n(Cc3ccccc3)c1=O)CCCC2 | inconclusive: 115% |
| COc1cccc(C2CC3C(=O)C=CC2N3Cc2ccccc2)c1 (configuration not stated) | active: 58.2% |
| CCN(CC)c1ccc(/C=N/c2sc3c(c2C#N)C2CCN3CC2)c(O)c1 | inconclusive: 111% |
